Results reported in patent US9211294B2, “Phenothiazine compounds for treating mild cognitive impairment” (WisTa Laboratories Ltd., priority 2007, dated 2015).

Tested on: scopolamine-treated NMRI mice
Assay: Morris water maze spatial reference memory task, reversal of scopolamine-induced cognitive deficits
Assay type: in vivo
Conditions: mg/kg i.p.
Description: Female, NMRI mice aged 3-4 months were from Harlan, UK.
Mice were group housed (7-9 per cage) and maintained with light from 7 am-7 pm and experiments carried out in the light phase. […] They were separated into 6 groups to receive drug administrations as follows:
The injection volume for drugs was 0.2 ml per 30 g animal weight and they were injected intraperitoneally. The doses were as indicated above.
The water maze consisted of a water-filled pool (1.5 m diameter; 20±2° C.) in which a platform submerged 1 cm below water surface was the only means of escape. Mice were released from 4 cardinal sites (South, West, North and East) facing the wall of the pool in random fashion and thus had to acquire spatial knowledge of the exact platform location by spatial mapping procedures using distal cues.
Each animal was given 6 trials/day and was allowed to swim for a maximum time of 60 seconds and stay 30 seconds on the platform. […] An inter-trial interval of 10-20 minutes was given. The animals were trained for 4 consecutive days and received probe trials (free swim for 60 seconds without platform in the pool) approximately 1.5 and 24 hours post-training to test short and long-term memory, respectively. The behaviour of animals was recorded via an overhead camera and data transmitted to the PC for online storage and analysis (EthoVision basic version 3.0.8. Noldus Information Technology, Netherlands).
Probe trial data were analysed by one-way ANOVA and the appropriate post-hoc tests (Bonferroni's multiple comparison test or Newman Keuls) were carried out to determine the source of a significant main effect or interaction. Analyses were performed two-tailed and the null hypothesis was […] at probability levels of 5% (p<0.05). Only terms for reliable differences are mentioned in the text for simplicity.

CCN(C)C(=O)Oc1cccc([C@H](C)N(C)C)c1 [rivastigmine, rivastigmine tartrate] was tested, and the Swim speed (scopolamine (0.5) then Rivast (0.1)) was “significantly differed from controls”, the Swim speed (scopolamine (0.5) then Rivast (0.1), listed as Rivast) was “↑” and the Swim speed (scopolamine (0.5) then Rivast (0.5)) was “speed decreased over the last two training days”.

Where a name gives a salt, the structure may show the parent alone.
